Experiment [1] has as its target T1, RalA (UniProt P11233 1-178, limits assumed).
T1 construct: also called RalA protein
T1 sequence: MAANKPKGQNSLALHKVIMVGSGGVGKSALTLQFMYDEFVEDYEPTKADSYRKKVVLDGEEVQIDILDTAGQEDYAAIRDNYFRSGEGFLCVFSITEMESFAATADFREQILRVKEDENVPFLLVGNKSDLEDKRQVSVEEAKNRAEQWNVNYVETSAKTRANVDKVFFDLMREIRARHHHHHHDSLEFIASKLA
The experiment is described as follows: statement in the description; data in FIG. 38B (yeast surface display).

Experiment [2] has as its target T1, RalA. The experiment can be described thus: yeast surface display, flow cytometry; APC-A = labeled target, FITC-A = display level. (In general: Flow cytometry measures light scatter and fluorescence of single cells or particles in a stream.)
In experiment [3] the target is T1, RalA. The experiment can be described thus: statement in the description; data in FIG. 38A (yeast surface display).

From US20170240604A1 (Harvard, published 2017) come the findings set out here.

No constants are given. Whether binding was seen depends on the method and setting. Some binding calls cover weakened binding; strength is not graded here.

B1: RR01 (peptide)
peptide: GPRRPRCPGDDASIRDLVMYWYRLYFYLEAVA
B1: the binding entry with RalA [1] and with RalA [2] was “binds” throughout.

B2: RL01 (peptide)
peptide: GPRRPRCPGDDASISDLLLYWLRLDRYLWAVA
For the molecule B2, the binding result in the experiment with RalA [3] and with RalA [2] was “binds” in each case.
